Data from paper PMC10695388.
Results are given in words; binding and its absence hold for the method and conditions named. In cells and extracts the contact can be indirect. Some results given as binding are weak or reduced against the parent protein; the word gives no strength.

Molecular target: T1, Enp1_WKK (W224V, K228E, K231E) (S. cerevisiae) (UniProt P38333)
T1 sequence: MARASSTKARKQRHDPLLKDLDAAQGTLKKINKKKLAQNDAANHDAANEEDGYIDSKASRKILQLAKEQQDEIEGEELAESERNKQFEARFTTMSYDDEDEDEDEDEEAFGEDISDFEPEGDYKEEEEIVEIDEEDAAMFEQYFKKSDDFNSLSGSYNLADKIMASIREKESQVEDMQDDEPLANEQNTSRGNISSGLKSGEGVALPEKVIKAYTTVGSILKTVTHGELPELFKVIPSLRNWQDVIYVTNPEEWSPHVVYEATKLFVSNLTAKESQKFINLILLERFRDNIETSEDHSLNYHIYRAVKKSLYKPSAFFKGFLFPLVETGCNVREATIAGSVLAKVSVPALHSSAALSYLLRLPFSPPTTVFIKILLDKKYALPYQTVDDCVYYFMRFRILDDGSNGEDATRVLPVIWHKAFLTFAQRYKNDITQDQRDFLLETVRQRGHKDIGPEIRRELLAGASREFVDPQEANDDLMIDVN
Test: co-sedimentation; 10-50% sucrose gradient of clarified yeast lysates from cells expressing wt Enp1 or Enp1_WKK; fractions probed by Western blot

B1: Ltv1 (wild type) (protein, UniProt P34078 1-463)
chain: MSKKFSSKNSQRYVVVHRPHDDPSFYDTDASAHVLVPVSNPNKTSPEADLRKKDVSSTKPKGRRAHVGEAALYGINFDDSEYDYTQHLKPIGLDPENSIFIASKGNEQKVEKKNIEDLFIEPKYRRDEIEKDDALPVFQRGMAKPEYLLHQQDTTDEIRGFKPDMNPALREVLEALEDEAYVVNDDVVVEDISKKTQLQGDNYGEEEKEDDIFAQLLGSGEAKDEDEFEDEFDEWDIDNVENFEDENYVKEMAQFDNIENLEDLENIDYQADVRRFQKDNSILEKHNSDDEFSNAGLDSVNPSEEEDVLGELPSIQDKSKTGKKKRKSRQKKGAMSDVSGFSMSSSAIARTETMTVLDDQYDQIINGYENYEEELEEDEEQNYQPFDMSAERSDFESMLDDFLDNYELESGGRKLAKKDKEIERLKEAADEVSKGKLSQRRNRERQEKKKLEKVTNTLSSLKF
For B1, the binding was “binds weakly”.
